Source: article PMC9985635
No constants are given. Whether binding was seen depends on the method and setting. Binding seen in cells or lysates may run through a third protein. Here binding means that the protein was enriched with, or labelled near, the bait; the list need not be complete. Sequences can lack the tags named with a protein.

Biological target: T1, Flag-LKB1 (UniProt Q15831)
T1 sequence: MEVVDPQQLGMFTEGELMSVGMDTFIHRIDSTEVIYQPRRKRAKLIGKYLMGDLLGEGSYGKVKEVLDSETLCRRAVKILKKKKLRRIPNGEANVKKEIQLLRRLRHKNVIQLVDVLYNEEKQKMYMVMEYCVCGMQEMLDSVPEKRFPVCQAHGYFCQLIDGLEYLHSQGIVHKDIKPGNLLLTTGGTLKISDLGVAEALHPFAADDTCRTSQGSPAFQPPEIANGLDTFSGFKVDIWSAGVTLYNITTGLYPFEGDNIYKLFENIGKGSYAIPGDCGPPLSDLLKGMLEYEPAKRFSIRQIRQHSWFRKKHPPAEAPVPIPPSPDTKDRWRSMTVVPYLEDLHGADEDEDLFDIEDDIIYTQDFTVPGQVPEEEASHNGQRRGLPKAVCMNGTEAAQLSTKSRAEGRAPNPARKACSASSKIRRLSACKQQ
Test: affinity purification with mass spectrometry; control vector or Flag-LKB1-overexpressing vector in H1299 cells; immunoprecipitation with anti-Flag antibody, then NanoLC-ESI-MS/MS

binding: binds
B1: retinoblastoma protein RB (H1299 cells) (protein, UniProt P06400 1-928)
chain: MPPKTPRKTAATAAAAAAEPPAPPPPPPPEEDPEQDSGPEDLPLVRLEFEETEEPDFTALCQKLKIPDHVRERAWLTWEKVSSVDGVLGGYIQKKKELWGICIFIAAVDLDEMSFTFTELQKNIEISVHKFFNLLKEIDTSTKVDNAMSRLLKKYDVLFALFSKLERTCELIYLTQPSSSISTEINSALVLKVSWITFLLAKGEVLQMEDDLVISFQLMLCVLDYFIKLSPPMLLKEPYKTAVIPINGSPRTPRRGQNRSARIAKQLENDTRIIEVLCKEHECNIDEVKNVYFKNFIPFMNSLGLVTSNGLPEVENLSKRYEEIYLKNKDLDARLFLDHDKTLQTDSIDSFETQRTPRKSNLDEEVNVIPPHTPVRTVMNTIQQLMMILNSASDQPSENLISYFNNCTVNPKESILKRVKDIGYIFKEKFAKAVGQGCVEIGSQRYKLGVRLYYRVMESMLKSEEERLSIQNFSKLLNDNIFHMSLLACALEVVMATYSRSTSQNLDSGTDLSFPWILNVLNLKAFDFYKVIESFIKAEGNLTREMIKHLERCEHRIMESLAWLSDSPLFDLIKQSKDREGPTDHLESACPLNLPLQNNHTAADMYLSPVRSPKKKGSTTRVNSTANAETQATSAFQTQKPLKSTSLSLFYKKVYRLAYLRLNTLCERLLSEHPELEHIIWTLFQHTLQNEYELMRDRHLDQIMMCSMYGICKVKNIDLKFKIIVTAYKDLPHAVQETFKRVLIKEEEYDSIIVFYNSVFMQRLKTNILQYASTRPPTLSPIPHIPRSPYKFPSSPLRIPGGNIYISPLKSPYKISEGLPTPTKMTPRSRILVSIGESFGTSEKFQKINQMVCNSDRVLKRSAEGSNPPKPLKKLRFDIEGSDEADGSKHLPGESKFQQKLAEMTSTRTRMQKQKMNDSMDTSNKEEK
